Experimental data reported in US20160368992A1, “A METHOD OF INCREASING GIPCR SIGNALIZATION IN THE CELLS OF A SCOLIOTIC SUBJECT” (CHU SAINTE-JUSTINE, priority 2013, published 2016).
For at least one compound, name, drawing or mass did not settle the structure.

System: GiPCR signaling
Assay: CDS (CellKey) functional evaluation of Gi protein-mediated receptor signaling in primary mouse osteoblasts
Type: cell-based
Details: osteoblasts from WT and OPN-/- mice; increasing agonist concentration

## C[C@H](N)C(=O)NCC(=O)N[C@H]1CSSC[C@@H](C(=O)O)NC(=O)[C@H](CO)NC(=O)[C@H]([C@@H](C)O)NC(=O)[C@H](Cc2ccccc2)NC(=O)[C@H]([C@@H](C)O)NC(=O)[C@H](CCCCN)NC(=O)[C@H](Cc2c[nH]c3ccccc23)NC(=O)[C@H](Cc2ccccc2)NC(=O)[C@H](Cc2ccccc2)NC(=O)[C@H](CC(N)=O)NC(=O)[C@H](CCCCN)NC1=O [somatostatin]
  response to GiPCR agonist: concentration-dependent increase of response
